The values that follow come from patent US20090220511A1.

Chains of the proteins cited; added tags and fusions are not shown. Lines headed by an entry give the natural chain unless they say otherwise; changes in a name come on top.
UniProt P15260: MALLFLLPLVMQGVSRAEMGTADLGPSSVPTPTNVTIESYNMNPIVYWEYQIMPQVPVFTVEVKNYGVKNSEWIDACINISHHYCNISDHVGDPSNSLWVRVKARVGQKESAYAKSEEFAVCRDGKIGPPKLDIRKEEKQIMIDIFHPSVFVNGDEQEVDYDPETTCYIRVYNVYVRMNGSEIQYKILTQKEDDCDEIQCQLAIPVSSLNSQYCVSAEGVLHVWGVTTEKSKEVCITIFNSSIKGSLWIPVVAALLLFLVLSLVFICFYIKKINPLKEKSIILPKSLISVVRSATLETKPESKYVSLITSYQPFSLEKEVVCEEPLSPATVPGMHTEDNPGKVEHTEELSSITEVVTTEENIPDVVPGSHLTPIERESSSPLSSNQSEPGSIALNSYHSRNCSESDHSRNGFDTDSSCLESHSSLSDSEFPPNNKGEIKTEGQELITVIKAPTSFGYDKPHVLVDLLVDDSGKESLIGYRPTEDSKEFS

These are yes or no findings as the source states them, for the method shown. Binding can be weak; no strength is given.

Test [1] concerns the target T1, chimeric human CRF2-12/γR1 chain and intact human CRF2-4 (IL-10R2) chain expressed together on hamster 16-9 cells (human) (UniProt P15260).
T1 sequence 1: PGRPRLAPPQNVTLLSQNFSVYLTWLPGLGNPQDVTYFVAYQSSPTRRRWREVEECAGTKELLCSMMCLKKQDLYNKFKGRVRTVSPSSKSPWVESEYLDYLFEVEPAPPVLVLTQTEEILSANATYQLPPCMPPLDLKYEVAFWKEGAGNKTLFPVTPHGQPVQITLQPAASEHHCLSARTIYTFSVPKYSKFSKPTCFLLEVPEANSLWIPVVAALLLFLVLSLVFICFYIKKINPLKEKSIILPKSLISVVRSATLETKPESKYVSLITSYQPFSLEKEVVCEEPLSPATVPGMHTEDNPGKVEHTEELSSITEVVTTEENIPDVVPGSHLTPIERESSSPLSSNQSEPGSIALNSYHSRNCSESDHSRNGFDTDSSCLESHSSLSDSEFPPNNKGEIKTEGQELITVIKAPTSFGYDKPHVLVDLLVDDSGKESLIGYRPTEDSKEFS
T1 sequence 2: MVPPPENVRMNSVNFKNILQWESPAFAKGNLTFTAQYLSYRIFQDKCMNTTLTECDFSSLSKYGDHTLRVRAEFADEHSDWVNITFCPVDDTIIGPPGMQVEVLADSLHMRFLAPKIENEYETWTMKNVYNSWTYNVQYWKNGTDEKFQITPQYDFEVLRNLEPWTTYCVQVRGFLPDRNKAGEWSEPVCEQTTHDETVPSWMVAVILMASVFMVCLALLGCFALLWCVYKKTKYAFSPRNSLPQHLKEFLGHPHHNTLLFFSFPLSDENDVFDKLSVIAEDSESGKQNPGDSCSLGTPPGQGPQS
The test is described as follows: flow cytometry with anti-FLAG antibody on transfected hamster cells. (In general: In flow cytometry, cells or beads pass a laser one at a time.)

Test [2] addresses T1, chimeric human CRF2-12/γR1 chain and intact human CRF2-4 (IL-10R2) chain expressed together on hamster 16-9 cells (human). Put plainly: crosslinking of 32P-labeled ligand to transfected hamster cells, 7.5% SDS-PAGE.

As for “FL-IFN-λ2 (IFN-λ2 tagged at its N-terminus with the FLAG epitope) (ligand)”, the binding entry in test [1] is on record as “binds”.
Regarding “FL-IFN-λ1 (IFN-λ1 tagged at its N-terminus with the FLAG epitope) (ligand)”, the binding result in test [1] is on record as “binds”.
On to 32P-labeled FL-IFN-λ1-P (ligand), for which the binding result in test [2] was “binds”.
